Measurements from patent US20230158032A1, “PHARMACEUTICAL COMBINATION FOR THE TREATMENT OF MYELOPROLIFERATIVE NEOPLASMS” (Universitätsklinikum Jena, priority 2020, published 2023).
At least one structure is not confirmed: it was looked up by name or label, or the drawing left a doubt.

System: Jak2V617F positive HEL cells
Assay: Xenograft of shRNA-treated Jak2V617F positive HEL cells in NSGS mice with Jak-i treatment
Type: in vivo, mouse (NSGS) carrying human cells
Details: concurrent Jak-i treatment with Ybx1 inactivation

N#CC[C@H](C1CCCC1)n1cc(-c2ncnc3[nH]ccc23)cn1 [Ruxolitinib]
survival: significantly prolonged survival
